In article PMC7367873, “Dissecting the sequence determinants for dephosphorylation by the catalytic subunits of phosphatases PP1 and PP2A” (Nature Communications, 2020):

Tested on: PP1c/PP2Ac holoenzyme formation
Assay: Gel-filtration analysis of holoenzyme formation in HeLa Kyoto lysate
Assay type: binding, human
Settings: Superdex 200 Increase 10/300, 1 µM phosphatase with HeLa Kyoto lysate; MW 30–700 kDa; carried out once

Substance | association with higher MW complexes / elution shift in gel filtration
PP1c: recombinant catalytic subunit of PP1 | only a very small fraction of PP1c potentially binding to regulators
PP2Ac: His-tagged recombinant PPP2CA ΔL309, purchased from Cayman Chemical | unassociated with higher MW complexes
